Values quoted from earlier work as cited in patent US20080138411A1, “Modified Release Formulations Of Selective Serotonin Re-Uptake Inhibitors” (priority 2002, published 2008).
Read-outs that look alike come from different tables or passages of the source.

Assays:
[1] = cited from earlier work; for time to reach peak plasma concentration (Tmax): tablet
[2] = in vivo; cited from earlier work

Compound | Tmax ([1]; oral concentrate, single dose without food) [h] | time to reach peak plasma concentration (Tmax) ([1]; single dose with food) [h] | time to reach peak plasma concentration (Tmax) ([1]; single dose without food) [h] | effect of food on systemic bioavailability [2]
CN[C@H]1CC[C@@H](c2ccc(Cl)c(Cl)c2)c2ccccc21.Cl [Sertraline, (1S-cis)-4(3,4-dichlorophenyl)-1,2,3,4-tetrahydro-N-methyl-1-naphthalenamine hydrochloride] | 5.9 | 5.5 | 8 | 
CNCCC(Oc1ccc(C(F)(F)F)cc1)c1ccccc1.Cl (racemic) [Fluoxetine, (±)-N-methyl-3-phenyl-3-[(α,α,α-trifluoro-p-tolyl)oxy)propylamine hydrochloride] |  |  |  | does not appear to affect
